Test results taken from patent publication US20260294770A1, “FORMULATIONS OF NARINGENIN” (DEBUT BIOTECHNOLOGY, INC., priority 2023, published 2026).
At least one read-out could not be matched to a standard name with certainty.

Experiments:
Details in all cases: negative = downregulation
CCL11 = test: Downregulation of gene expression and/or activity, 1% naringenin: CCL11
CSF2 = test: Downregulation of gene expression and/or activity, 1% naringenin: CSF2
Excerpt: (§1) In certain embodiments, administration of a composition comprising naringenin leads to up-regulation of LCE5A, KRT77, ALOXE3, KRT1, HPGD, MUCL1, CASP14, WFDC12, KRT10, DNASE1L2, IL37, SERPINB12, HAL, UPK1A, CALML5, LCE2B, and/or MIR205. In certain embodiments, administration of a composition comprising naringenin leads to down-regulation of CCL11, CSF2, IL23A, IL11, BMP6, IL13RA2, C2CD4A, NR4A2, C2CD4B, FGF2, FARP4, GDF15, THBS1, HSPA1A, PTGS2, and/or DKK1. Tables 10 and 11 provide data for upregulation and downregulation respectively of certain genes after administration of compositions comprising 1% naringenin.
Granulocyte-macrophage colony-stimulating factor (CSF2) plays a role in inflammation and arthritis. In certain embodiments of the invention, downregulation of CSF2 leads to an anti-inflammatory activity and/or anti-arthritic activity. In certain embodiments, the administration of composition comprising naringenin results in at least about 10 to about 20-fold downregulation of expression and/or activity of CSF2. In certain embodiments, the administration of composition comprising naringenin results in at least about fifteen (15) fold downregulation of expression and/or activity of CSF2.

IL23A = test: Downregulation of gene expression and/or activity, 1% naringenin: IL23A
Excerpt: as §1
Interleukin 23A (1L23A) plays a role in the inflammatory pathway. In certain embodiments of the invention, downregulation of IL23A leads to an anti-inflammatory activity. In certain embodiments, the administration of composition comprising naringenin results in at least about 10 to about 20-fold downregulation of expression and/or activity of 1L23A. In certain embodiments, the administration of composition comprising naringenin results in at least about fifteen (15) fold downregulation of expression and/or activity of IL23A.

IL11 = test: Downregulation of gene expression and/or activity, 1% naringenin: IL11
Excerpt: as §1
Interleukin 11 (IL11) plays a role in the inflammatory pathway and in certain pathways that may be involved in cancer. In certain embodiments of the invention, downregulation of IL11 leads to an anti-inflammatory activity and/or anticancer activity. In certain embodiments, the administration of composition comprising naringenin results in at least about 10 to about 20-fold downregulation of expression and/or activity of IL11. In certain embodiments, the administration of composition comprising naringenin results in at least about ten (10) fold downregulation of expression and/or activity of IL11.

SMILES: O=C1C[C@@H](c2ccc(O)cc2)Oc2cc(O)cc(O)c21 [naringenin, (2S)-5,7-Dihydroxy-2-(4-hydroxyphenyl)-2,3-dihydro-4H-1-benzopyran-4-one]
- Fold-increase (downregulation table) CCL11 (CCL11): −20 fold
- Fold-increase (downregulation table) CSF2 (CSF2): −18 fold
- Fold-increase (downregulation table) IL23A (IL23A): −18 fold
- Fold-increase (downregulation table) IL11 (IL11): −14 fold
